PMC8463699
These are yes or no findings as the source states them, for the method shown. Binding seen in cells or lysates may run through a third protein. Some binding calls cover weakened binding; strength is not graded here.

By UniProt entry, the sequences of proteins in these tests, tags left out.
UniProt P16671: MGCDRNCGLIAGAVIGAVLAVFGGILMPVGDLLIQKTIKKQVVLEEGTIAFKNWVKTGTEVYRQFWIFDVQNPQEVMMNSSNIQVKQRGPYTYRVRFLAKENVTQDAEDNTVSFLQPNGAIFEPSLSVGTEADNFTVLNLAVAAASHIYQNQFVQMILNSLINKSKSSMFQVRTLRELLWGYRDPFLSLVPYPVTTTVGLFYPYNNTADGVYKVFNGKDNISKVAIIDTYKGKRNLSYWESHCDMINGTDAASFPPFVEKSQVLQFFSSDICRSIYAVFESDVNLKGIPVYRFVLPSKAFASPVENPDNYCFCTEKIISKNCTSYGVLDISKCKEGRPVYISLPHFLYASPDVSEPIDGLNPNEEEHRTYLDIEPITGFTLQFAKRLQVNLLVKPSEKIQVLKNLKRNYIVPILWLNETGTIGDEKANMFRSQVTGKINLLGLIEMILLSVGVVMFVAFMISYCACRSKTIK
UniProt P40763: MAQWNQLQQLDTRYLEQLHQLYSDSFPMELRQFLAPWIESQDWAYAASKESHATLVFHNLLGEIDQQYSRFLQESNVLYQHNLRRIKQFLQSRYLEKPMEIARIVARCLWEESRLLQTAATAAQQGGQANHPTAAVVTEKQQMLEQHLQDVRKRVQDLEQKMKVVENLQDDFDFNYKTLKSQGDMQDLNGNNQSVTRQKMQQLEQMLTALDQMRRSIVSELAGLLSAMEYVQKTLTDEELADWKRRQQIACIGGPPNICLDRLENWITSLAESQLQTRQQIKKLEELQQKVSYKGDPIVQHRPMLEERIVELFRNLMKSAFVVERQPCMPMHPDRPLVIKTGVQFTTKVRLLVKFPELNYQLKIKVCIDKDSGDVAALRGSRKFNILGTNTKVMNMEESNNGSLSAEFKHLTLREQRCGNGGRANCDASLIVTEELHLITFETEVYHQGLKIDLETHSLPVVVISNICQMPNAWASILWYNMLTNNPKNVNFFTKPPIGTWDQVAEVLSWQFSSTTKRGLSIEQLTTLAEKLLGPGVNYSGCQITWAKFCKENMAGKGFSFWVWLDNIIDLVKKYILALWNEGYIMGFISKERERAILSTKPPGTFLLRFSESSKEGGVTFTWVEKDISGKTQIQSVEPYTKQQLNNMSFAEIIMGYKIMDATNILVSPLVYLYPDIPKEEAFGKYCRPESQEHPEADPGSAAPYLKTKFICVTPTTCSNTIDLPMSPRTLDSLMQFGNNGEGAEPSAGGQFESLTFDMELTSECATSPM
UniProt P27361: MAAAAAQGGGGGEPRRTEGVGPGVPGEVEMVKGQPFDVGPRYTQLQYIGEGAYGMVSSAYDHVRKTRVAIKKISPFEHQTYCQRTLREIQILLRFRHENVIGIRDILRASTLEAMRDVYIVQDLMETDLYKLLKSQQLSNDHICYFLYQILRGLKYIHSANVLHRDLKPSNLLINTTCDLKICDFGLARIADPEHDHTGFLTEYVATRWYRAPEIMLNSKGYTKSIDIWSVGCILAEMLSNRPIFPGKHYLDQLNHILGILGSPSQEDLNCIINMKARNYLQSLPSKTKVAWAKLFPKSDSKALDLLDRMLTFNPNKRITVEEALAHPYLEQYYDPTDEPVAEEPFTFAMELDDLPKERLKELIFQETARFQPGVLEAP
UniProt P15090: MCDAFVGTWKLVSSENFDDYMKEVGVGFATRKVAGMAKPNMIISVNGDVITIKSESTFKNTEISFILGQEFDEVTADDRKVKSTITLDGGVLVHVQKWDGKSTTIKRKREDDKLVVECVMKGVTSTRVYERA

Experiments:
[1] = target: GST-CD36 of the GST pull-down for STAT3, pSTAT3, ERK1/2 and pERK1/2 (Fig. 4C) (human) (UniProt P16671); experiment: pull-down; GST pull-down with CD36 in MCF-7 and MDA-MB-468 cells, blotted for STAT3, pSTAT3 (Y705), ERK1/2 and pERK1/2 (Thr202/Tyr204); bacterial or mammalian GST-CD36 not stated
[2] = target: GST-tagged CD36 (full human CD36 cDNA in pGEX-4T-3) (human) (UniProt P16671); experiment: pull-down; GST-tagged CD36 purified from BL21 mixed with proteins from control, CD36-expressing and CD36-knockout MCF-7 and MDA-MB-468 cells (with/without adipocyte co-culture), 4 °C for 4 h with rotating; eluate blotted with anti-FABP4 antibody; only the target purified
[3] = target: CD36 in MCF-7 and MDA-MB-468 cell lysate (human) (UniProt P16671); experiment: co-IP; CD36 antibody (2 ug) coupled to AminoLink Plus resin; pre-cleared lysate (500 ug total protein) of MCF-7 and MDA-MB-468 cells, overnight at 4 °C; non-denaturing and denaturing immunoprecipitation; western blot for FABP4

Substance | binding [1] | binding [2] | binding [3]
pSTAT3 (Y705) (from UniProt P40763 1-770) | binds |  | 
pERK1 (of pERK1/2 (Thr202/Tyr204)) (from UniProt P27361 1-379) | no binding |  | 
FABP4 (from UniProt P15090 1-132) |  | binds | binds
STAT3 (from UniProt P40763 1-770) | binds |  | 
ERK1 (of ERK1/2) (from UniProt P27361 1-379) | no binding |  | 
